These are yes or no findings as the source states them, for the method shown. For some of these results: In cells and extracts the contact can be indirect. Some results given as binding are weak or reduced against the parent protein; the word gives no strength. For some of these results: Where a sequence is shown, tags or fusion partners need not be part of it.
Legend:
antizyme (human) [1] = target: antizyme (human) (UniProt P54368); assay: list of antizyme interactors; yeast two-hybrid (FIG. 30)
[2] = target: LexA-Smad1 (full length Smad1 fused in frame to the LexA DNA binding domain (1-202) in pEG202) (UniProt P0A7C2); assay: yeast two-hybrid; list of Smad1 interactors
Smad3 [3] = target: Smad3 (UniProt P84022); assay: yeast two-hybrid; list of Smad3 interactors
HsN3 (human) [4] = target: HsN3 (human) (UniProt P28070); assay: yeast two-hybrid
[5] = target: LexA-Smad1 (full length Smad1 fused in frame to the LexA DNA binding domain (1-202) in pEG202) (UniProt P0A7C2); assay: yeast two-hybrid
antizyme (human) [6] = target: antizyme (human) (UniProt P54368); assay: yeast two-hybrid
Clone S1+12 (human) = target: T1, Clone S1+12 (human); assay: method not detailed
T1 sequence: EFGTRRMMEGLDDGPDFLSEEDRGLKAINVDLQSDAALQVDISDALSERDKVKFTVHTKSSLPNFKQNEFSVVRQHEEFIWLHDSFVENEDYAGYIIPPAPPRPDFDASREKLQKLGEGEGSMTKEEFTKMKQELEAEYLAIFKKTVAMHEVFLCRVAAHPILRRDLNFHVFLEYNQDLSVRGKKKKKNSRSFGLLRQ

Chains of the proteins cited; added tags and fusions are not shown. Lines headed by an entry give the natural chain unless they say otherwise; changes in a name come on top. Residues count along the entry.
UniProt P54368, residues 101-228: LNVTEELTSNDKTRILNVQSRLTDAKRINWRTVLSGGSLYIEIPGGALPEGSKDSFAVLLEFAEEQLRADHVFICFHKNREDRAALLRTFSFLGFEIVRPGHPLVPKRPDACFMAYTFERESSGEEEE
UniProt P0A7C2: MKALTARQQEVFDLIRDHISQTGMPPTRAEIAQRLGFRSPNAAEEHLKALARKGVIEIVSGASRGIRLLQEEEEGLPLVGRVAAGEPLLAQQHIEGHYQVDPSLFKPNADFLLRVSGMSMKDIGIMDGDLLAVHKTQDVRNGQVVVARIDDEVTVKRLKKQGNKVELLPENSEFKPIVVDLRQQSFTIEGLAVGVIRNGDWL
UniProt P84022: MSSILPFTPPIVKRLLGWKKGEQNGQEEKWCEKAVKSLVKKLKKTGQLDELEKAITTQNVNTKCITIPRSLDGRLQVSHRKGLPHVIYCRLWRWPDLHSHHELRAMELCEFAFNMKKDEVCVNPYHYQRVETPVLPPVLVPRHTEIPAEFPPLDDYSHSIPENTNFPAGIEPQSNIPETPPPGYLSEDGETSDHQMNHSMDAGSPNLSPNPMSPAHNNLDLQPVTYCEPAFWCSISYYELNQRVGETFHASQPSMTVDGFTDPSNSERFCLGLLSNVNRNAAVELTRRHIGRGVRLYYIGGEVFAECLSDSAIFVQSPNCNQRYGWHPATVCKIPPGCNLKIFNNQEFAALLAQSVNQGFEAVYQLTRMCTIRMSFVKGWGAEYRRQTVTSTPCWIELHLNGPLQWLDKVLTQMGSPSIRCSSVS
Smad3N (aa 1-144): residues 1-144 of P84022
Smad3C (aa 231-424): residues 231-424 of P84022
UniProt P28070: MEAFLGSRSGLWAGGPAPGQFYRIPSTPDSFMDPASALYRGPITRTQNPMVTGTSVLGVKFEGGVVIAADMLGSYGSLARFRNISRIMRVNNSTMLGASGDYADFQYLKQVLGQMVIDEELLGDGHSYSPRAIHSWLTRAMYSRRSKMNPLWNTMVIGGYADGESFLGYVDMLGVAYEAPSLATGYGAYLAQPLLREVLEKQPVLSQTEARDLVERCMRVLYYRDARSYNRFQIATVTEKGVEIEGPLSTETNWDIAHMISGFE
UniProt Q15796: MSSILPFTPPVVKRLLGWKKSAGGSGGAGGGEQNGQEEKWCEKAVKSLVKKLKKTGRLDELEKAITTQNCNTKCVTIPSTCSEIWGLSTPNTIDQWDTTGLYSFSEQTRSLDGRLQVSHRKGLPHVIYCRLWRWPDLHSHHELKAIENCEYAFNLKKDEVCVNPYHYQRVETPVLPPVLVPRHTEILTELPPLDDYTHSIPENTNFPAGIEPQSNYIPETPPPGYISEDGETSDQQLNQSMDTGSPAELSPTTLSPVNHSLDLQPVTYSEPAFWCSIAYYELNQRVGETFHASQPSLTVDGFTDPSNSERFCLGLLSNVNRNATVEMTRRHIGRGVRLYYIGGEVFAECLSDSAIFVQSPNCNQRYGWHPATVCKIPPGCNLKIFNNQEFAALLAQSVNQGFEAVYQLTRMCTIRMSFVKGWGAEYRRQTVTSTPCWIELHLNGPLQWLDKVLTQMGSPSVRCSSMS
UniProt Q13485: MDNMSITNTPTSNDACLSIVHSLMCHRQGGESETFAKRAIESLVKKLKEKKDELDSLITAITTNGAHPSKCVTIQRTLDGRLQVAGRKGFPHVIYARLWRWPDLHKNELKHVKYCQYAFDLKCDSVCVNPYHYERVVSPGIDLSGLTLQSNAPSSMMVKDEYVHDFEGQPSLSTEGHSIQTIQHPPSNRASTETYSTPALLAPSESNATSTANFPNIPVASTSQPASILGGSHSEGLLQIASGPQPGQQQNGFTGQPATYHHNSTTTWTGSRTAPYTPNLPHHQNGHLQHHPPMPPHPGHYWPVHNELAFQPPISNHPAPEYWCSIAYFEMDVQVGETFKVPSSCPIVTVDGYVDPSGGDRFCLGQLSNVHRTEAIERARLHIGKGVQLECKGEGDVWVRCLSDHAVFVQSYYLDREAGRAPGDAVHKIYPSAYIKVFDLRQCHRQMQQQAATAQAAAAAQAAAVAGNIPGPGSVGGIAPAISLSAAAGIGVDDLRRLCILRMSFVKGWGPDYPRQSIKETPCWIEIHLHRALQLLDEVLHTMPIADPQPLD

HsN3 (human) [7] = target: HsN3 (human) (UniProt P28070); assay: method not detailed
antizyme (human) [8] = target: antizyme (human) (UniProt P54368); assay: method not detailed
[9] = target: LexA-Smad1 (full length Smad1 fused in frame to the LexA DNA binding domain (1-202) in pEG202) (UniProt P0A7C2); assay: yeast two-hybrid screen, LexA-Smad1 bait
Smad2 = Smad2 (UniProt Q15796); assay: yeast two-hybrid; list of Smad2 interactors
HsN3 (human) [10] = target: HsN3 (human) (UniProt P28070); assay: list of HsN3 interactors; method not detailed
Smad4 = Smad4 (UniProt Q13485); assay: method not detailed; told in the description only
Smad3 [11] = target: Smad3 (UniProt P84022); assay: co-immunoprecipitation, transfected cells
Smad3C (aa 231-424) = Smad3C (aa 231-424) (UniProt P84022); assay: co-immunoprecipitation, transfected cells
Smad3N (aa 1-144) = Smad3N (aa 1-144) (UniProt P84022); assay: co-immunoprecipitation, transfected cells
Smad3 [12] = target: Smad3 (UniProt P84022); assay: co-immunoprecipitation, transfected 293 cells

Measured: binding

B1: Clone S1+27 (SIP2) (protein)
chain: KSSPLLIRMEESLNIVKYTAFLYNDQLIWSGLEQDDMRILYKYLTTSLFPRHIEPELAGRDSPIRAEMPGNLQHYGRFLTGPLNLNDPDAKCRFPKIFVNTDDTYEELHLIVYKAMSAAVCFMIDASVHPTLDFCRRLDSIVGPQLTVLASDICEQFNINKRMSGSEKEPQFKFIYFNHMNLAEKSTVHMRKTPSVSLTSVHPDLMKILGDINSDFTRVDEDEEIIVKAMSDYWVVGKKSDRRELYVILNQKNANLIEVNEVKKLCATQFNNIFFLD
binds: antizyme (human) [1]

B2: PAG (an antioxidant protein), clone S1+35 (protein, human, UniProt Q06830 35-199, looked up)
chain: KGKYVVFFFYPLDFTFVCPTEIIAFSDRAEEFKKLNCQVIGASVDSHFCHLAWVNTPKKQGGLGPMNIPLVSDPKRTIAQDYGVLKADEGISFRGLFIIDDKGILRQITVNDLPVGRSVDETLRLVQAFQFTDKHGEVCPAGWKPGSDTIKPDVQKSKEYFSKQK
binds: [2] | antizyme (human) [1]

B3: Clone S3+12 (protein)
chain: EFGTRRRKATEISTAVVQRSATIGSSPVLYSQSAIATGHQAAGIGNQATGIGHQTIPVSLPAAGMGHQARGMSLQSNYLGLAAAPAIMSYAECSVPIGVTAPSLQPVQARGAVPTATIIEPPPPPPPPPPPPPPAPKMPPPEKTKKGRKDKAKKSKTKMPSLVKKWQSIQRELDEEDNSSSSEEDRESTAQKRIEEWKQQQLVSGMAERNANFEALPEDWRARLKRRKMAPNT
binds: [2] | Smad3 [3]

B4: Clone S1+28 (protein)
chain: FAVDAKALPQNKPRPLTQEEIAQRRERARQRHAEKLAAAQGQAPLEPTQDGSAIETCPKGDEPRGDEQQVESMTPKPVLQEENNQESFIAFARVFSGVARRGKKIFVLGPKYSPLEFLRRVPLCFSAPPDGLPQVPHMAYCALENLYLLMGRELEYLEEVPPGNVLGIGGLQDFVLKSATLCSLPSCPPFIPLNFEATPIVRVAVEPKHPSEMPQLVKGMKLLNQADPCVQILIQETGEHVLVTAGEVHLQRCLDDLKERFAKIHISVSEPIIPFRETITKPPKVDMVNEEIGKQQKVAVIHQMKEDQSKIPEGIQVDSDGLITITTPNKLATLSVRAMPLPEEVTQILEENSDLIRSMEQLTSSLNEGENTHMIHQKTQEKIWEFKGKLEQHLTGRRWRNIVDQIWSFGPRKCGPNILVNKSEDFQNSVWTGPADKASKEASRYRDLGNSIVSGFQLATLSGPMCEEPLMGVCFVLEKWDLSKFEEQGASDLAKEDRRKMKPVLVEMKTKSYKMAALRPLRRGHHRKENLHSLTAMDLSQDS
binds: antizyme (human) [1]

B5: SNIP-1 (Smad1 Nuclear Interactor Protein 1), clone S1+19 (protein)
chain: PGSGQGQGRDRDTQNLQAQEEEREFYNARRREHRQRNDVGGGGSESQELVPRPGGNNKEKEVPAKEKPSFELSGALLEDTNTFRGVVIKYSEPPEARIPKKRWRLYPFKNDEVLPVMYIHRQSAYLLGRHRRIADIPIDHPSCSKQHAVFQYRLVEYTRADGTVGRRVKPYIIDLGSGNGTFLNNKRIEPQRYYELKEKDVLKFGFSSREYVLLHESSDTSEIDRKDDEDEEEEEEVSDS
not listed: Smad3 [11] | Smad3C (aa 231-424) | Smad3N (aa 1-144) | Smad3 [12]
binds: all other assays above

B6: GST (glutathione transferase), clone S1+13 (enzyme, not shown: small tags and cut ends)
chain: SCESSMVLGYWDIRGLAHAIRLLLEFTDTSYEEKRYTCGEAPDYDRSQWLDVKFKLDLDFPNLPYLLDGKNKITQSNAILRYIARKHNMCGETEEEKIRVDIIENQVMDFRTQLIRLCYSSDHEKLKPQYLEELPGQLKQFSMFLGKFSWFAGEKLTFVDFLTYDILDQNRIFDPKCLDEFPNLKAFMCRFEALEKIAAYLQSDQFCKMPINNKMAQWGNKPVC
binds: [2] | Smad2

B7: TRIP-4 (an interactor of thyroid hormone receptor), clone S3+75 (protein, UniProt Q15650 115-581, looked up)
chain: VPAFTEPDTTAEVKTPFDLAKAQENSNSVKKKTKFVNLYTREGQDRLAVLLPGRHPCDCLGQKHKLINNCLICGRIVCEQEGSGPCLFCGTLVCTHEEQDILQRDSNKSQKLLKKLMSGVENSGKVDISTKDLLPHQELRIKSGLEKAIKHKDKLLEFDRTSIRRTQVIDDESDYFASDSNQWLSKLERETLQKREEELRELRHASRLSKKVTIDFAGRKILEEENSLAEYHSRLDETIQAIANGTLNQPLTKLDRSSEEPLGVLVNPNMYQSPPQWVDHTGAASQKKAFRSSGFGLEFNSFQHQLRIQDQEFQEGFDGGWCLSVHQPWASLLVRGIKRVEGRSWYTPHRGRLWIAATAKKPSPQEVSELQATYRLLRGKDVEFPNDYPSGCLLGCVDLIDCLSQKQFKEQFPDISQESDSPFVFICKNPQEMVVKFPIKGNPKIWKLDSKIHQGAKKGLMKQNKAV
binds: [2] | Smad2 | Smad3 [3]

B8: HEF1, Human enhancer of filamentation (yeast two-hybrid clone, starts at nt. 1527 of GenBank ID No. L43821) (protein, UniProt Q14511 456-834, looked up)
chain: ELFLKEYLHFVKGAVANAACLPELILHNKMKRELQRVEDSHQILSQTSHDLNECSWSLNILAINKPQNKCDDLDRFVMVAKTVPDDAKQLTTTINTNAEALFRPGPGSLHLKNGPESIMNSTEYPHGGSQGQLLHPGDHKAQAHNKALPPGLSKEQAPDCSSSDGSERSWMDDYDYVHLQGKEEFERQQKELLEKENIMKQNKMQLEHHQLSQFQLLEQEITKPVENDISKWKPSQSLPTTNSGVSAQDRQLLCFYYDQCETHFISLLNAIDALFSCVSSAQPPRIFVAHSKFVILSAHKLVFIGDTLTRQVTAQDIRNKVMNSSNQLCEQLKTIVMATKMAALHYPSTTALQEMVHQVTDLSRNAQLFKRSLLEMATF
binds: Smad3 [3] | HsN3 (human) [10] | antizyme (human) [1]

B9: p115HEF1 (full length HEF1, 115 kD form) (protein, human, UniProt Q14511 1-834, looked up)
chain: MKYKNLMARALYDNVPECAEELAFRKGDILTVIEQNTGGLEGWWLCSLHGRQGIVPGNRVKLLIGPMQETASSHEQPASGLMQQTFGQQKLYQVPNPQAAPRDTIYQVPPSYQNQGIYQVPTGHGTQEQEVYQVPPSVQRSIGGTSGPHVGKKVITPVRTGHGYVYEYPSRYQKDVYDIPPSHTTQGVYDIPPSSAKGPVFSVPVGEIKPQGVYDIPPTKGVYAIPPSACRDEAGLREKDYDFPPPMRQAGRPDLRPEGVYDIPPTCTKPAGKDLHVKYNCDIPGAAEPVARRHQSLSPNHPPPQLGQSVGSQNDAYDVPRGVQFLEPPAETSEKANPQERDGVYDVPLHNPPDAKGSRDLVDGINRLSFSSTGSTRSNMSTSSTSSKESSLSASPAQDKRLFLDPDTAIERLQRLQQALEMGVSSLMALVTTDWRCYGYMERHINEIRTAVDKVELFLKEYLHFVKGAVANAACLPELILHNKMKRELQRVEDSHQILSQTSHDLNECSWSLNILAINKPQNKCDDLDRFVMVAKTVPDDAKQLTTTINTNAEALFRPGPGSLHLKNGPESIMNSTEYPHGGSQGQLLHPGDHKAQAHNKALPPGLSKEQAPDCSSSDGSERSWMDDYDYVHLQGKEEFERQQKELLEKENIMKQNKMQLEHHQLSQFQLLEQEITKPVENDISKWKPSQSLPTTNSGVSAQDRQLLCFYYDQCETHFISLLNAIDALFSCVSSAQPPRIFVAHSKFVILSAHKLVFIGDTLTRQVTAQDIRNKVMNSSNQLCEQLKTIVMATKMAALHYPSTTALQEMVHQVTDLSRNAQLFKRSLLEMATF
modifications: form derived from differential phosphorylation; sites not given
binds: Smad3 [11] | Smad3C (aa 231-424) | Smad3N (aa 1-144) | Smad3 [12]

B10: p105HEF1 (full length HEF1, 105 kD form) (protein, human, UniProt Q14511 1-834, looked up)
chain: B9 chain
modifications: form derived from differential phosphorylation; sites not given
binds: Smad3 [11] | Smad3C (aa 231-424) | Smad3N (aa 1-144)
